The test can be described thus: qHTS Assay for Modulators of Lamin A Splicing. Particulars: HeLa LMNA splicing GFP/RFP minigene ratio, 48 h. The text has this:
NCGC Assay Overview: Hutchinson-Gilford Progeria Syndrome (HGPS) is a pediatric premature aging disease caused by a spontaneous mutation in the lamin A/C (LMNA) gene. The mutation activates a cryptic splice site in the LMNA pre-mRNA which results in production of a pre-lamin A protein that cannot be processed properly. The mutant protein accumulates in the nucleus and negatively affects numerous cellular functions. Correction of the splicing defect in HGPS patient cells using a targeted oligonucleotide (exo11) leads to reversal of the cellular disease phenotypes. To identify small molecule modulators of aberrant LMNA splicing, a homogenous assay was constructed in HeLa cells that used a GFP containing minigene to report on correction of aberrant splicing in lamin A and a RFP (DsRed2) to report on cell viability, uniformity and nonspecific effects on the assay signal. This assay was adapted to laser-scanning microplate cytometry (Acumen, TTP Labtech) where miniaturization of the assay to a 1,536-well plate format was possible. References: Bowen, W. P.; Wylie, P. G. Application of Laser-Scanning Fluorescence Microplate Cytometry in High Content Screening. Assay Drug Dev Technol 2006;4:209-221. Scaffidi P, Misteli T. Reversal of the cellular phenotype in the premature aging disease Hutchinson-Gilford progeria syndrome. Nat.
NCGC Assay Protocol Summary: Reagents/Controls: Stable clones expressing DsRed2 and lamin A-EGFP were generated by Cell and Molecular Technologies in S3 HeLa cells. HeLa cells were prepared for the assay when they were 70-90% confluent. The cells were counted and resuspended in Opti-MEM I (no phenol red; Gibco), 2% FBS, 1% penicillin/ streptomycin (Gibco) at concentration of 120 cells/uL concentration. The suspension was passed through a Falcon basket filter with pore size 40um (Beckton Dickson). Control titrations: column […] 1536-well plate contained a sixteen point titration (1:2 dilutions) in duplicate of ancitabine (Sigma: A8598) beginning at 40 uM final concentration. Column 2 contained a sixteen point titration (1:2 dilutions) of cycloheximide beginning at 1.4 mM final concentration. Column 3 contained ancitabine at 40 uM and column 4 contained was the vehicle control (0.5% DMSO final concentration). Assay Steps: 5 uL of HeLa cells were plated in Aurora LoBase black clear bottom (cyclic-olefin polymer) 1536-well plates at a final density of 600 cells/well. Controls and library compounds were added with a 1536-well pin array using the Kalypsys pin-tool. The plates were then incubated for 48 hrs in a cell-culture incubator (37 °C; 5% CO2, 98% humidity). Following incubation the plates were read on the Acumen Explorer using the 488 nm laser. Data was collected on objects between 10 and 100 um in size. Cell objects were defined by a 15 um width x 10 um depth filter. The ratio of the total object intensity in PMT1 (500-530 nm emission; GFP) over PMT3 (575-640 nm emission; RFP) was calculated for analysis. Keywords: NIH Roadmap, MLSCN, MLI, MLSMR, qHTS, NCGC, lamin A, Progeria, RNA splicing.
(Quantitative high-throughput screening tests each substance at several concentrations.)

[1] abbreviates: measured here: GFP splicing reporter channel.
Where [2] appears, read: measured here: RFP viability control channel.

The other results are listed elsewhere or left out. These are further read-outs of the screen, such as a control signal, another cell line or another target. No call is given for them. The list favours compounds with an active or inconclusive main result. Potencies come from curve fits of mixed quality, noted in brackets.

Regarding `NC(=O)c1cc(NC(=O)c2cc(Br)c(Br)s2)cc(C(N)=O)c1`, the half-maximal activity concentration (AC50) under setting [1] is 8.91 µM [falling, partial curve] and the AC50 under setting [2] was 5.01 µM [falling, partial curve].

Turning to `COc1ccc(CCNC(=O)Cn2nnc(-c3cccc(OC)c3OC)n2)cc1OC`, under setting [2], the AC50 was 25.1 µM [rising, single point].

As to `COc1ccccc1C(CC(=O)Nc1ccc(C)c(C)c1)c1ccc(OC(C)C)cc1` (stereo unspecified), the concentration at half-maximal activity (AC50) under setting [2] is 17.8 µM [rising, partial curve].

As for `CC1CCN(S(=O)(=O)c2ccc(C(=O)Nc3nnc(-c4ccncc4)o3)cc2)CC1`, the half-maximal activity concentration (AC50) is, setting by setting: under setting [1], 6.31 µM [falling, partial curve, poor fit]; under setting [2], 0.00316 µM [falling, full curve, poor fit].

For `CSCc1cc(N2CCOCC2)nc(SCc2ccc(Cl)c(Cl)c2)n1`, the AC50 under setting [1] is 12.6 µM [rising, single point].

For the compound `Cc1cnc(NC(=O)C2(c3ccccc3)CC2)s1`, the AC50 under setting [2] was 0.0282 µM [rising, full curve, poor fit].

Turning to `C=C(C)COc1ccc2c(C)c(C)c(=O)oc2c1OCC(=C)C`, the AC50 runs as follows: under setting [1], 11.2 µM [rising, partial curve]; under setting [2], 31.6 µM [rising, single point].

As for `COC(=O)C1=C(C)NC(C)=C(C(=O)OC)C1C1CC=CCC1` (stereo unspecified), the AC50 under setting [2] was 35.5 µM [rising, single point].

For `C#CCN(C)CC/C=C1\c2ccccc2CSc2ccccc21`, under setting [1], the AC50 was 35.5 µM [rising, single point].

For `CCOc1ccc(/C=C/C(=O)Nc2cccc(C(C)=O)c2)cc1`, under setting [2], the half-maximal activity concentration (AC50) was 28.2 µM [rising, single point].

For `COc1ccccc1N1CCN(C(c2ccc(Cl)cc2)c2nnnn2C(C)(C)C)CC1` (stereo unspecified), the AC50 is, setting by setting: under setting [1], 12.6 µM [rising, partial curve]; under setting [2], 20 µM [rising, single point].

`Cc1ccc2nc(NC(=O)c3cccc(-c4cc5ccccc5oc4=O)c3)sc2c1`: the AC50 is, setting by setting: under setting [1], 35.5 µM [falling, single point]; under setting [2], 12.6 µM [falling, partial curve].

Turning to `Cc1ccc(-n2nnnc2SCn2nnc3ccccc3c2=O)cc1`, the AC50 under setting [2] was 12.6 µM [rising, single point].

As for `COc1ccc(S(=O)(=O)N2CCCCCC2)cc1NC(=O)Cc1cc(OC)c(OC)c(OC)c1`, under setting [2], the AC50 is 35.5 µM [rising, single point].

As for `CC(C)CN(CC(C)C)S(=O)(=O)c1ccc(C(=O)Nc2sc3c(c2C(N)=O)CC(C)(C)NC3(C)C)cc1`, under setting [2], the AC50 is 0.158 µM [falling, full curve].

Take `CC(=O)c1ccc(N2CCN(C(=O)C3(S(=O)(=O)c4ccc(Cl)cc4)CC3)CC2)cc1`: the AC50 under setting [2] is 11.2 µM [rising, single point].

On to `CC1CN(S(=O)(=O)c2ccc(NC(=O)c3cc(-c4ccccc4O)n[nH]3)cc2)CC(C)O1` (stereo unspecified), for which the AC50 under setting [1] is 8.91 µM [rising, partial curve, poor fit] and the AC50 under setting [2] is 12.6 µM [rising, partial curve, poor fit].

In the case of `COc1ccc(/C=N/NC(=O)C2COc3ccccc3O2)cc1OC` (stereo unspecified), the AC50 is 0.0708 µM [falling, full curve, poor fit] under setting [1] and 0.0282 µM [falling, full curve, poor fit] under setting [2].

As for `Clc1ccc(OCCn2cnc3ccccc32)cc1`, the AC50 under setting [2] is 35.5 µM [rising, single point].

Consider `CCN1CCS/C1=C/C=C/C1=[N+](CC)CCS1`, for which the AC50 was 0.316 µM [rising, full curve] under setting [1] and 2.24 µM [rising, full curve] under setting [2].

As to `COc1ccc(NC(=O)Cc2c(O)c3ccccc3[nH]c2=O)cc1`, the AC50 under setting [1] is 3.98 µM [falling, full curve] and the AC50 under setting [2] is 7.08 µM [falling, full curve, poor fit].

In the case of `CCOC(=O)/C(C#N)=C/Nc1ccccc1NS(=O)(=O)c1ccc(C)c(C)c1`, the AC50 under setting [2] is 35.5 µM [falling, single point].

Take `COC(=O)c1cc(S(=O)(=O)C(C)C)c(S(C)=O)s1` (stereo unspecified): the concentration at half-maximal activity (AC50) is 3.98 µM [falling, partial curve] under setting [1] and 12.6 µM [falling, single point] under setting [2].

Consider `CCOc1ccccc1NC(=O)c1c(NCc2cccs2)sc2c1CCC(C)C2` (stereo unspecified), for which the AC50 under setting [1] was 2.82 µM [falling, single point].

Consider `Cc1noc(C)c1-c1ccc2ncnc(N(C)Cc3ccco3)c2c1`, for which the AC50 under setting [1] was 3.55 µM [falling, single point].

For `Cc1nnc(NC(=O)CSc2nccn2Cc2ccc(F)cc2)s1`, under setting [1], the AC50 was 0.355 µM [rising, full curve, poor fit].

Take `CCOC(=O)c1c(S(=O)(=O)N2CCCC(C(=O)Nc3ccccn3)C2)c(C)n(C)c1C` (stereo unspecified): under setting [2], the AC50 is 2.24 µM [falling, partial curve].

Regarding `CCCCCCC(=O)c1c(C)[nH]c(C(=O)OCC)c1C`, the AC50 by setting is: under setting [1], 7.94 µM [rising, partial curve]; under setting [2], 11.2 µM [rising, partial curve].

As to `COc1ccc(C)cc1NC(=O)C(Sc1nnc(-c2cccs2)o1)c1ccccc1` (stereo unspecified), the AC50 by setting is: under setting [1], 17.8 µM [rising, single point]; under setting [2], 14.1 µM [rising, single point].

Regarding `S=c1[nH]nc(-c2ccccn2)n1/N=C/c1ccc(-c2ccccc2Cl)o1`, the AC50 was 1.41 µM [falling, partial curve, poor fit] under setting [1] and 31.6 µM [rising, single point] under setting [2].

Consider `Cc1noc(C)c1-c1nccc(NCCN2CCOCC2)n1`, for which the half-maximal activity concentration (AC50) by setting is: under setting [1], 12.6 µM [falling, partial curve, poor fit]; under setting [2], 20 µM [falling, single point].

For `O=C(Nc1ccc(C(=O)N2CCOCC2)cc1)Nc1cccc(Cl)c1`, the concentration at half-maximal activity (AC50) under setting [2] was 11.2 µM [rising, partial curve, poor fit].

As for `CCOC(=O)C1CCN(C(=O)CN2c3ccc(CC)cc3-c3ccccc3S2(=O)=O)CC1`, the concentration at half-maximal activity (AC50) under setting [2] was 31.6 µM [falling, partial curve, poor fit].

For the compound `Cc1ccc(NC(=O)c2ccc(N3CCOCC3)c([N+](=O)[O-])c2)cc1S(=O)(=O)N1CCOCC1`, the AC50 under setting [1] is 17.8 µM [rising, single point] and the half-maximal activity concentration (AC50) under setting [2] is 35.5 µM [rising, single point].

As for `COc1cc(/C=N/NC(=O)C2CCN(CC(O)COCc3ccccc3)CC2)ccc1O` (stereo unspecified), the AC50 under setting [2] was 0.00447 µM [rising, full curve, poor fit].

With `Cc1cc(C)n(C(=O)CNc2ccc(C)c(C)c2)n1`, the AC50 under setting [2] was 8.91 µM [rising, partial curve, poor fit].

`O=C(COc1ncnc2ccccc12)NCCc1ccc(F)cc1`: under setting [2], the AC50 is 0.0355 µM [falling, full curve, poor fit].

Regarding `CC(=O)OCC(=O)[C@@]1(O)CC[C@@H]2[C@H]3CCC4=CC(=O)C=C[C@]4(C)[C@]3(F)[C@@H](O)C[C@@]21C`, the AC50 runs as follows: under setting [1], 0.000891 µM [rising, full curve, poor fit]; under setting [2], 0.0316 µM [falling, full curve, poor fit].

For `Cc1cc(OI)c(C(C)C)cc1-c1cc(C(C)C)c(OI)cc1C`, the AC50 under setting [1] is 0.631 µM [falling, full curve] and the AC50 under setting [2] was 0.0178 µM [falling, full curve, poor fit].

In the case of `C=C1C(=O)[C@@]23[C@H](O)C[C@@H]4C(C)(C)CC[C@H](O)[C@@]4(C)[C@@H]2CC[C@@H]1[C@H]3O`, the AC50 under setting [2] was 35.5 µM [falling, single point].

As to `CCC(=O)/C(=C(/O)c1ccccc1)c1nc2ccccc2[nH]1`, the AC50 was 0.501 µM [rising, full curve, poor fit] under setting [1] and 3.55 µM [rising, partial curve] under setting [2].

`CN(C)/C=C/C(=O)c1ncc(C(F)(F)F)cc1Cl`: the AC50 under setting [1] is 35.5 µM [falling, single point].

Consider `CC(=O)N1CCC(N2CCN(Cc3ccc(C)cc3)C(CCO)C2)CC1` (stereo unspecified), for which the AC50 under setting [1] was 2.51 µM [rising, partial curve].

In the case of `O=C1c2cccc3cccc(c23)C(=O)N1CCN1CCN(CC(O)COCc2ccc(Cl)cc2)CC1` (stereo unspecified), the AC50 runs as follows: under setting [1], 31.6 µM [rising, single point]; under setting [2], 31.6 µM [rising, single point].

With `CN(C)C(=O)c1ccc(-c2nc(N(C)Cc3ccco3)c3ccccc3n2)cc1`, the AC50 under setting [1] was 5.01 µM [rising, full curve] and the AC50 under setting [2] is 28.2 µM [rising, single point].

`CCOC(=O)C1(Cc2ccccc2)CCCN(Cc2cccc(C(C)=O)c2)C1` (stereo unspecified): the AC50 under setting [1] is 17.8 µM [falling, partial curve, poor fit] and the AC50 under setting [2] was 14.1 µM [falling, partial curve].

Regarding `Cn1c(=O)c(NCCc2ccccc2)c2c3c(cccc31)C(=O)c1ccccc1-2`, the AC50 under setting [1] is 15.8 µM [falling, partial curve] and the AC50 under setting [2] was 11.2 µM [falling, partial curve].

For the compound `Cc1cccc(CNc2cc(-c3ccccc3CN(C)C)ncn2)c1`, the AC50 under setting [2] is 31.6 µM [rising, single point].

Regarding `CC(=O)c1ccc(Nc2cc(C)nc3ccc(C)cc23)cc1`, the AC50 is, setting by setting: under setting [1], 14.1 µM [falling, single point]; under setting [2], 25.1 µM [falling, single point].

Regarding `Cc1ccc(S(=O)(=O)Nc2ccccc2/C=N/c2nc3ccccc3n2C(C)C)cc1`, the AC50 under setting [2] is 1.12 µM [rising, partial curve].

For `N=C(N=C(N)N)N1CCOCC1`, the AC50 is, setting by setting: under setting [1], 0.0355 µM [falling, full curve, poor fit]; under setting [2], 0.0562 µM [falling, full curve].

For `COc1cccc(C(=O)N/N=C/C(Br)=C/c2ccccc2)c1`, under setting [2], the AC50 is 17.8 µM [falling, partial curve, poor fit].

Broadly, the AC50 is the concentration at which the activity in the assay is half-maximal.

The record behind these values is PubChem BioAssay AID1487 (National Center for Advancing Translational Sciences (NCATS), 2009).
